The entries are a selection whose mix differs from that of the whole data set.
What follows are targets tested with COC(=O)C#Cc1ccccc1 [methyl 3-phenylpropiolate] (assay: log2 ratio of iodoacetamide-alkyne labeling of the cysteine site, DMSO over compound (competition); higher = stronger covalent engagement of the cysteine by the compound, active = 1 or more). Details: 500 µM; treatment time 1 h; system: HEK293T cell lysate.
How it was run: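 After 1 h at ambient temperature with vehicle or electrophile (500 µM), HEK293T lysate (2 mg/mL) was labelled for 1 h with iodoacetamide alkyne and clicked to sCIP-TMT reagents. Pooled samples were trypsin-digested overnight at 37 °C, streptavidin-enriched, acid-eluted and analysed by Orbitrap Eclipse LC-MS/MS with FAIMS, then quantified in FragPipe over three replicates with duplicate channels. A cysteine's log2 competition ratio is its mean control-channel over mean compound-channel reporter intensity. Cysteines quantified in only one replicate were not included.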

The chains behind the UniProt entries cited, without tags or fusion partners. Where a name states a change or a piece, a line headed by the entry shows the natural chain unless it says otherwise.
UniProt Q14676: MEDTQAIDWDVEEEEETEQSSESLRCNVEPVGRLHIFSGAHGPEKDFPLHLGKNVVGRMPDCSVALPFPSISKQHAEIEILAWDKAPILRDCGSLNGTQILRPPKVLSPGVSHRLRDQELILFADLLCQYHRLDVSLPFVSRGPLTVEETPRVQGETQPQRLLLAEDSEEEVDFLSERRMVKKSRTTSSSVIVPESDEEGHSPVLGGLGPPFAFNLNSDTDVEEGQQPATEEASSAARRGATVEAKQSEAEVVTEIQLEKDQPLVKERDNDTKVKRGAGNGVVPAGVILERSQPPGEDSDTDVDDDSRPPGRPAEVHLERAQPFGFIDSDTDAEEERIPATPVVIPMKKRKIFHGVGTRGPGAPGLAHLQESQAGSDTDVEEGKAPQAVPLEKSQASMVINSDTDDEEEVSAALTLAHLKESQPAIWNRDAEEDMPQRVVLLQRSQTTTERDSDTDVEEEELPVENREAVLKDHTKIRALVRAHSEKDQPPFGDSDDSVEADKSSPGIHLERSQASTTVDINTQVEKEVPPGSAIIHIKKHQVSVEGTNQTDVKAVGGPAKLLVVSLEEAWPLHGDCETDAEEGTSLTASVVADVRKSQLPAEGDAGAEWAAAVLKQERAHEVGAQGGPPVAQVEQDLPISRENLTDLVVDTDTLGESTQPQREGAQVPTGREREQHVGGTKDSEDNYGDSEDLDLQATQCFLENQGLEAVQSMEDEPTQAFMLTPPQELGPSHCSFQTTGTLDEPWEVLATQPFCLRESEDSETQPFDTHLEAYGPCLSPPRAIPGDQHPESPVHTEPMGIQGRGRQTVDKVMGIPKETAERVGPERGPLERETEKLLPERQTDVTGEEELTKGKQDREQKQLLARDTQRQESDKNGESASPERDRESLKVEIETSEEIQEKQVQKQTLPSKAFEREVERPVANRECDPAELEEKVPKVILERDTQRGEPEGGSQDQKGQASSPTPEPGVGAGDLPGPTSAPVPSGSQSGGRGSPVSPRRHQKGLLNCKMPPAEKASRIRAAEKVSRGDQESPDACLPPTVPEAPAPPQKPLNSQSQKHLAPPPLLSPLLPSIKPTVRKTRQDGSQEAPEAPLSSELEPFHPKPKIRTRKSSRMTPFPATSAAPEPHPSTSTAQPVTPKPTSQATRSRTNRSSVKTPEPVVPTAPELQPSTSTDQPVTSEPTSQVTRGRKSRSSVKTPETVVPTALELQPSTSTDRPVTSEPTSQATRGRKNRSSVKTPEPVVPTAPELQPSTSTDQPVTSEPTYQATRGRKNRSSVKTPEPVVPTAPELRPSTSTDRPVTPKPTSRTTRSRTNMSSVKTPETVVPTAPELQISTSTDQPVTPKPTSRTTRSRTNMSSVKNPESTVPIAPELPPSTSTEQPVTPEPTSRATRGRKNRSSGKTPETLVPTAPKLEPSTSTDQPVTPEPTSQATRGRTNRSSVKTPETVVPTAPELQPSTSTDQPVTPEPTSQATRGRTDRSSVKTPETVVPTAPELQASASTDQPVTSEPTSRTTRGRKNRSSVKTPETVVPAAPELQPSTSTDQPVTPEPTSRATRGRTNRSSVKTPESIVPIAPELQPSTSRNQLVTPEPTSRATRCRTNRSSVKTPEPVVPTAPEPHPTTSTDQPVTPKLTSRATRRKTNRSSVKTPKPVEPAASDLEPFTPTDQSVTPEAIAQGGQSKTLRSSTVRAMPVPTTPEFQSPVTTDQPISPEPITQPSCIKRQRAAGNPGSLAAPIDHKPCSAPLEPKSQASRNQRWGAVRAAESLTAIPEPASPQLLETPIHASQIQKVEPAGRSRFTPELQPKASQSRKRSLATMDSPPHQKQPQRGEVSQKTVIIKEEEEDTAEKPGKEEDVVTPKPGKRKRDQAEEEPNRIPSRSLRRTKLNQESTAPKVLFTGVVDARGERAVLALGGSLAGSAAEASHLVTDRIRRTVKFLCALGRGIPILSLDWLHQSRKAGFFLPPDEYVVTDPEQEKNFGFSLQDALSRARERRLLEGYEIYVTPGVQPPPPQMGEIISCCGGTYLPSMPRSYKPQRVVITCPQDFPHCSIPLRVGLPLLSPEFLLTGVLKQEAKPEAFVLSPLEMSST
UniProt Q13542: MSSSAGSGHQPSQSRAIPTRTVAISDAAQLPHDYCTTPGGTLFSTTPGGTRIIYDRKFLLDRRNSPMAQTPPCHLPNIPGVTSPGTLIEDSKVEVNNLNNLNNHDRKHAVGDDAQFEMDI
UniProt Q14980: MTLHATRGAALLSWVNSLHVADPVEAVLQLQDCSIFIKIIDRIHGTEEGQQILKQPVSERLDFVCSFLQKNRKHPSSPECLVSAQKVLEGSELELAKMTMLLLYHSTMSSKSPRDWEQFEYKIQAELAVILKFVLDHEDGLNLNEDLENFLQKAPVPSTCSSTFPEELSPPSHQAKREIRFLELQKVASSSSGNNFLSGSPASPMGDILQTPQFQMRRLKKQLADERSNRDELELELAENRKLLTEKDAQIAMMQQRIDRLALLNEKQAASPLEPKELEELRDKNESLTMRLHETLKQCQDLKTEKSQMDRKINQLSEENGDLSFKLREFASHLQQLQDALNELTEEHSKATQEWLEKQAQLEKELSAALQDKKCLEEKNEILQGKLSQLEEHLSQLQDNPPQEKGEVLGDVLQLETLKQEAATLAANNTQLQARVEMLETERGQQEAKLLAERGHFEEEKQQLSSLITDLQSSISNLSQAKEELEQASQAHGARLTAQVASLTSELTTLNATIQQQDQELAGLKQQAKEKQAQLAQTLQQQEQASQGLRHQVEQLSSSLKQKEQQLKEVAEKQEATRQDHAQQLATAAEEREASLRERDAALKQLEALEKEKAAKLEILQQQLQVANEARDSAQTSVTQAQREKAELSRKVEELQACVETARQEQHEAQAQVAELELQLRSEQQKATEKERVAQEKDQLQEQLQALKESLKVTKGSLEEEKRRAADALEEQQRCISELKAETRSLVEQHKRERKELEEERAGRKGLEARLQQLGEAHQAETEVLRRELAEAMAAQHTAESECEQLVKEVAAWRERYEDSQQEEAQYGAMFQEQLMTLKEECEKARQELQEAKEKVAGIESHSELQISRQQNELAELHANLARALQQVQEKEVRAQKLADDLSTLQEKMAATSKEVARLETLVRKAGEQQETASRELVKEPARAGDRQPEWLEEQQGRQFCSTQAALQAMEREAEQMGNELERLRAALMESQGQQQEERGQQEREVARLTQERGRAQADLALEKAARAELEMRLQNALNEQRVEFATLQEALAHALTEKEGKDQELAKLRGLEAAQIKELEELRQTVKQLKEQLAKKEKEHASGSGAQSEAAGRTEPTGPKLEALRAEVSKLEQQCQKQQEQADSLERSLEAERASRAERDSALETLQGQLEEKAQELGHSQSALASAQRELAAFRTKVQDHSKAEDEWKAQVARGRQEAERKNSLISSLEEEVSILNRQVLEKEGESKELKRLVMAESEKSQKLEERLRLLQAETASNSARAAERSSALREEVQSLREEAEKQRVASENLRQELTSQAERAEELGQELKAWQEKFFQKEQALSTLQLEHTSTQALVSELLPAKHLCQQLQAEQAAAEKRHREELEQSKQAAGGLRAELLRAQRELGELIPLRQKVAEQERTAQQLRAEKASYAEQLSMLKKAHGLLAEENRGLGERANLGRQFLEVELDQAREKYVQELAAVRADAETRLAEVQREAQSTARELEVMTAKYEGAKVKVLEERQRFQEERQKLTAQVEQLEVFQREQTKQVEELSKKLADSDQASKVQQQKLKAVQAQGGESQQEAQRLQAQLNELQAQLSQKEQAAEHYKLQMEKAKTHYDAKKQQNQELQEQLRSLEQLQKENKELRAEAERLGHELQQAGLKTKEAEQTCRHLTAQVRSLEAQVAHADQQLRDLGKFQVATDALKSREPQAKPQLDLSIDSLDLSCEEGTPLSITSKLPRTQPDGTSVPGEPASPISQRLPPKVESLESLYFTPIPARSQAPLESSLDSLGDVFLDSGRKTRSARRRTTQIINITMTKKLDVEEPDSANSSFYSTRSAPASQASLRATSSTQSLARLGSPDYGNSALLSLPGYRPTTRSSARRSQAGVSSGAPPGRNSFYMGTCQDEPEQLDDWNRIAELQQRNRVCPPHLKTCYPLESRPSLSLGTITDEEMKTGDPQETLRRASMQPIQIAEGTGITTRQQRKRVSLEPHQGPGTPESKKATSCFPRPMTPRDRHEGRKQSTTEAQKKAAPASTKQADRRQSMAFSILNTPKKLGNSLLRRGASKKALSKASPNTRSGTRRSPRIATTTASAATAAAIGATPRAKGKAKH
UniProt Q14493, whole entry, looked up: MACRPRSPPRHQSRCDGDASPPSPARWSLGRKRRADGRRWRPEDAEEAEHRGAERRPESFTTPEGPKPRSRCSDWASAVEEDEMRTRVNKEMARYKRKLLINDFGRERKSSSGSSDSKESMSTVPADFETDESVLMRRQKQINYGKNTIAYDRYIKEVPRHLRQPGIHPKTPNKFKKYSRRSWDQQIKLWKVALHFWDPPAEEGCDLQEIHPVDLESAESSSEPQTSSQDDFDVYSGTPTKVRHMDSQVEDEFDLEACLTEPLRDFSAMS
UniProt Q14839: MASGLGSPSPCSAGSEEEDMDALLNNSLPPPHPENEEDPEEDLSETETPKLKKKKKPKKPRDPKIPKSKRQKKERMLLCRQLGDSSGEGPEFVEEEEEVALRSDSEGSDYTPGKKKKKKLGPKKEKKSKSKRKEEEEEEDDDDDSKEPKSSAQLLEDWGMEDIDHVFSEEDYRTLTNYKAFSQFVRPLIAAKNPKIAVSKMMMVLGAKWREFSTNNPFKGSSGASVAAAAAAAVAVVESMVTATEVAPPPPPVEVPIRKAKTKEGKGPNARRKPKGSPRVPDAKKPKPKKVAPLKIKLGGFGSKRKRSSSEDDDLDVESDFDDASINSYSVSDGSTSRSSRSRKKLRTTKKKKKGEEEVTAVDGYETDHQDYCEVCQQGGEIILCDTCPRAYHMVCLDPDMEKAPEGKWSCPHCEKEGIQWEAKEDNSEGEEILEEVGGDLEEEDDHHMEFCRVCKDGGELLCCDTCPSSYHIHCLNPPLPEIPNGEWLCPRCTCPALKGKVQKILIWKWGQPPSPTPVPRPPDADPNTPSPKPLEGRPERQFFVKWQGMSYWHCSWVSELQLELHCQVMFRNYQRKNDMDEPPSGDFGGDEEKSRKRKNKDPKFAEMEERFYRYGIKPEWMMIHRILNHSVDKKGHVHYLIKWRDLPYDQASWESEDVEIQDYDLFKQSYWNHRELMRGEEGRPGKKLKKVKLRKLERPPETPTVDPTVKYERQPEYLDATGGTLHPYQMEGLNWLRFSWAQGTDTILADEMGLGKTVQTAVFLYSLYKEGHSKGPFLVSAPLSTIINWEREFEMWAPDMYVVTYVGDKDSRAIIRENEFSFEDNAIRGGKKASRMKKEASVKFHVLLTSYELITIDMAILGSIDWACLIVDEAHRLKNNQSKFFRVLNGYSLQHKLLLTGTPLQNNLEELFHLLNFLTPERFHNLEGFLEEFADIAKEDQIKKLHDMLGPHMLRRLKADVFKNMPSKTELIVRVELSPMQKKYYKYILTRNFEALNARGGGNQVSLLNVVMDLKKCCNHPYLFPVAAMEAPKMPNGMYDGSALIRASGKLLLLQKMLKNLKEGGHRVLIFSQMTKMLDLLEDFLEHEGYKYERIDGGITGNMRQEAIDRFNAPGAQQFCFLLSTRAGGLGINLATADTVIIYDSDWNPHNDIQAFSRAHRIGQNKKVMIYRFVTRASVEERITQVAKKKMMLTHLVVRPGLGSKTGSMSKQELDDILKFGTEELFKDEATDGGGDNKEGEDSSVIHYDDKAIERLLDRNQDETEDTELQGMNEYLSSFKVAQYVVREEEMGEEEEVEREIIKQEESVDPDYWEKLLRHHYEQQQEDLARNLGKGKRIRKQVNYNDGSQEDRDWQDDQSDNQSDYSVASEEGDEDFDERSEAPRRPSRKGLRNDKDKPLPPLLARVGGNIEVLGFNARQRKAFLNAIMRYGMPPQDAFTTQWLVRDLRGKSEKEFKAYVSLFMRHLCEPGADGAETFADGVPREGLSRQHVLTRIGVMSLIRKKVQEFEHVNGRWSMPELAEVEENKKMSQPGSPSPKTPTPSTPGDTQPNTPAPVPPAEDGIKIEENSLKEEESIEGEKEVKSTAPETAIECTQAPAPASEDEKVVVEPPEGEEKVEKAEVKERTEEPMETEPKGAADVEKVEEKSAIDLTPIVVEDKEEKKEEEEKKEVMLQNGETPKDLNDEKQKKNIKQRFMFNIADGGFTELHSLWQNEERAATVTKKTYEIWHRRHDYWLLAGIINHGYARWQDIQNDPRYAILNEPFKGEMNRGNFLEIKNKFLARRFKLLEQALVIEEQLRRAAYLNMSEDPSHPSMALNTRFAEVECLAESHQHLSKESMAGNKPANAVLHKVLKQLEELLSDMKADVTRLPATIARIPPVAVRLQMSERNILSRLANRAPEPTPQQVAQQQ

Target | log2 ratio of iodoacetamide-alkyne labeling
GAMT C91 (UniProt Q14353) | inactive: 0.223
CKAP5 C1026 (UniProt Q14008) | inactive: 0.17
MDC1 C128 (UniProt Q14676) | inactive: 0.14
MDC1 C26 (UniProt Q14676) | inactive: 0.436
ZMYM3 C1106 (UniProt Q14202) | inactive: 0.144
UBE4A C710 (UniProt Q14139) | inactive: -0.03
EIF4EBP2 C73 (UniProt Q13542) | inactive: 0.291
NUMA1 C658 (UniProt Q14980) | inactive: -0.0504
DCTN2 C256 (UniProt Q13561) | inactive: 0.566
SLBP C15 (UniProt Q14493) | inactive: 0.507
ITPR1 C530 (UniProt Q14643) | inactive: 0.211
DIP2A C6 (UniProt Q14689) | active: 1.75
MCM6 C185 (UniProt Q14566) | inactive: 0.0744
DYNC1H1 C3033 (UniProt Q14204) | inactive: 0.0176
NUMA1 C1937 (UniProt Q14980) | inactive: 0.741
SLBP C72 (UniProt Q14493) | inactive: 0.692
ZNF638 C652 (UniProt Q14966) | inactive: 0.587
DYNC1H1 C4121 (UniProt Q14204) | inactive: 0.159
PUM1 C964 (UniProt Q14671) | inactive: 0.457

Rewritten tab-delimited: part of the list above.
Target	log2 ratio of iodoacetamide-alkyne labeling
MDC1 C128 (UniProt Q14676)	inactive: 0.14
MDC1 C26 (UniProt Q14676)	inactive: 0.436
ZMYM3 C1106 (UniProt Q14202)	inactive: 0.144

Remaining list, next part

Target | log2 ratio of iodoacetamide-alkyne labeling
NCAPH C316 (UniProt Q15003) | inactive: -0.0371
BOP1 C373 (UniProt Q14137) | inactive: 0.0315
DYNC1H1 C3089 (UniProt Q14204) | inactive: 0.487
FHL3 C10 (UniProt Q13643) | inactive: -0.0308
WRN C171 (UniProt Q14191) | inactive: 0.312
CHD4 C1468 (UniProt Q14839) | inactive: 0.211
ZNF638 C1654 (UniProt Q14966) | inactive: 0.188
TTLL12 C612 (UniProt Q14166) | inactive: 0.0779
SPTAN1 C956 (UniProt Q13813) | inactive: 0.244
DYNC1H1 C633 (UniProt Q14204) | inactive: 0.785
NUMA1 C299 (UniProt Q14980) | inactive: 0.102
DYNC1H1 C4510 (UniProt Q14204) | inactive: 0.182
NCAPD2 C1249 (UniProt Q15021) | inactive: 0.179
FHL1 C10 (UniProt Q13642) | inactive: -0.136
DIP2A C252 (UniProt Q14689) | inactive: 0.649
ATR C1343 (UniProt Q13535) | inactive: 0.114
FHL1 C150 (UniProt Q13642) | inactive: -0.0675
RRP1B C386 (UniProt Q14684) | inactive: 0.28
